Results are given in words; binding and its absence hold for the method and conditions named. Binding seen in cells or lysates may run through a third protein. Some results given as binding are weak or reduced against the parent protein; the word gives no strength.

The chains behind the UniProt entries cited, without tags or fusion partners.
UniProt A7MBG4: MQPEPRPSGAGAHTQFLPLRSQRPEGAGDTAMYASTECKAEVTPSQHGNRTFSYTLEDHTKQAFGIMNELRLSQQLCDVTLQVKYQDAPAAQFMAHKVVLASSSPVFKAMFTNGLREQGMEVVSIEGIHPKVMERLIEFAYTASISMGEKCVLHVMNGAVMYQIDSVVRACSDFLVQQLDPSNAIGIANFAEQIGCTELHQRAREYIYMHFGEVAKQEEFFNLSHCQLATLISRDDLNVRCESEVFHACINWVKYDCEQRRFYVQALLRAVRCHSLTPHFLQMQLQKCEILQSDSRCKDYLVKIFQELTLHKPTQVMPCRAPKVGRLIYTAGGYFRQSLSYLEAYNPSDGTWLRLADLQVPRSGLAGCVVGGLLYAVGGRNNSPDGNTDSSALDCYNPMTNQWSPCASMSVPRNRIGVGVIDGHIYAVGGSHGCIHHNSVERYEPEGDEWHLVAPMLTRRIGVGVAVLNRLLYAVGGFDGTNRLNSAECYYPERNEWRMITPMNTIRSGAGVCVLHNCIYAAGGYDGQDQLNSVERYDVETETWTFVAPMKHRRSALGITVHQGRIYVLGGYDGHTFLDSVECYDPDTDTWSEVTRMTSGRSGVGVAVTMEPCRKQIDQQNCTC

This experiment deals with P62 (bovine (endogenous in BMECs)) (UniProt Q32PJ9). The experiment can be described thus: co-IP; BMEC lysate (IP lysis/wash buffer) incubated with P62 antibody, captured on Pierce protein A/G magnetic beads, low pH elution, Western blot; cells with activation of GPR109A (niacin). In general terms: Immunoblotting shows a protein as a band on a membrane.

On to Keap-1 (from UniProt A7MBG4 1-624), for which the binding result is given as “binds”.

Source of the values: paper PMC7246865.
